# PubChem BioAssay AID720710 | VTT Finland, 2013
# Screen: 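Knock-downs that leave cyclin E-high cells sensitive to replication stress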 (primary screen)
# Cell system: human U-2 OS bone cancer cells, parental and a cyclin E (CCNE1) overexpressing line
# Reagent: single siRNA against human genes, 1 µM siRNA in the printed spot mix
# Timing: 67 h
# Challenge: half the arrays: hydroxyurea 2 mM for 16 h, then 3 h recovery; other arrays untreated
# Measurement: 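DNA synthesis measured as imaged EdU uptake per nucleus (DAPI) at 67 h, normalised to subgrid median and given as z-score versus non-targeting controls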
# Reading the numbers: EdU z-score, cyclin E line, hydroxyurea and EdU z-score, parental, hydroxyurea: higher = more DNA synthesis than non-targeting controls
# This is one part, drawn at random, of about 1,380 deposited reagents. 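One array per condition without replicates; hydroxyurea arrays received 2 mM for 16 h plus 3 h recovery.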 Reagents against one gene are numbered here. Not all columns of the deposit are shown.
Target gene,reagent,"EdU z-score, cyclin E line, hydroxyurea","EdU z-score, parental, hydroxyurea"
UBE2A (ubiquitin conjugating enzyme E2 A),1,-1.1,-2.79
UBE2A (ubiquitin conjugating enzyme E2 A),2,-0.258,0.322
BNIP3 (BCL2 interacting protein 3),1,-1.36,-2.77
BNIP3 (BCL2 interacting protein 3),2,0.00699,-0.994
FANCB (FA complementation group B),1,-1.08,-2.33
FANCB (FA complementation group B),2,0.267,-1.25
EXD2 (exonuclease 3'-5' domain containing 2),1,0.41,-4.47
EXD2 (exonuclease 3'-5' domain containing 2),2,0.941,-1.15
H4C5 (H4 clustered histone 5),1,-0.217,0.311
H4C5 (H4 clustered histone 5),2,0.182,0.517
DDX11 (DEAD/H-box helicase 11),1,-1.44,-2.52
DDX11 (DEAD/H-box helicase 11),2,0.203,0.322
RING1 (ring finger protein 1),1,-0.746,1.04
RING1 (ring finger protein 1),2,1.8,3.6
TREX2 (three prime repair exonuclease 2),1,-1.17,-2.66
TREX2 (three prime repair exonuclease 2),2,-0.956,-0.354
CBX3 (chromobox 3),1,-3.62,-2.6
CBX3 (chromobox 3),2,-0.694,1.3
FLJ35220,1,-0.459,-0.67
FLJ35220,2,1.02,1.8
ZNF521 (zinc finger protein 521),1,-0.61,0.949
ZNF521 (zinc finger protein 521),2,0.938,1.59
CBX6 (chromobox 6),1,0.178,-1.5
CBX6 (chromobox 6),2,0.246,2.64
SFPQ (splicing factor proline and glutamine rich),1,-0.228,-0.222
SFPQ (splicing factor proline and glutamine rich),2,0.676,1.35
DCLRE1A (DNA cross-link repair 1A),1,-0.737,-0.495
DCLRE1A (DNA cross-link repair 1A),2,1.98,4.43
"POLG2 (DNA polymerase gamma 2, accessory subunit)",1,-1.57,-0.28
"POLG2 (DNA polymerase gamma 2, accessory subunit)",2,-0.771,2.46
TMX1 (thioredoxin related transmembrane protein 1),1,-0.984,0.00648
TMX1 (thioredoxin related transmembrane protein 1),2,0.854,1.09
IGF1 (insulin like growth factor 1),1,-0.576,-0.49
IGF1 (insulin like growth factor 1),2,1.06,3.56
GTSE1 (G2 and S-phase expressed 1),1,-0.776,-1.34
GTSE1 (G2 and S-phase expressed 1),2,2.6,-0.727
XAB2 (XPA binding protein 2),1,1.24,-0.762
XAB2 (XPA binding protein 2),2,2.26,0.0131
DBF4 (DBF4-CDC7 kinase regulatory subunit),1,-0.799,-1.22
DBF4 (DBF4-CDC7 kinase regulatory subunit),2,4.37,0.384
"POLD3 (DNA polymerase delta 3, accessory subunit)",1,-1.49,0.166
"POLD3 (DNA polymerase delta 3, accessory subunit)",2,-0.228,0.564
H2BC6 (H2B clustered histone 6),1,-0.665,-1.08
H2BC6 (H2B clustered histone 6),2,1.2,3.84
MED1 (mediator complex subunit 1),1,0.272,-1.73
MED1 (mediator complex subunit 1),2,0.314,2.26
LOC730394,1,-0.357,-0.172
LOC730394,2,-0.0482,3.07
"TFAM (transcription factor A, mitochondrial)",1,-0.145,0.135
"TFAM (transcription factor A, mitochondrial)",2,0.867,1.87
RNF149 (ring finger protein 149),1,-0.284,0.994
RNF149 (ring finger protein 149),2,-0.00263,5.03
ZNF93 (zinc finger protein 93),1,-0.028,-1.53
ZNF93 (zinc finger protein 93),2,0.7,2.56
TFAP2B (transcription factor AP-2 beta),1,1.06,-0.863
TFAP2B (transcription factor AP-2 beta),2,1.79,3.34
MSH6 (mutS homolog 6),1,-2.61,-0.447
MSH6 (mutS homolog 6),2,-0.0152,0.989

Looked up above.
Value for FLJ35220 #2 in “EdU z-score, cyclin E line, hydroxyurea”: 1.02
For “EdU z-score, cyclin E line, hydroxyurea”, CBX3 (chromobox 3) #1 has -3.62
For “EdU z-score, cyclin E line, hydroxyurea”, BNIP3 (BCL2 interacting protein 3) #1 shows -1.36
MED1 (mediator complex subunit 1) #2, EdU z-score, cyclin E line, hydroxyurea: 0.314
Result of RING1 (ring finger protein 1) #2 in “EdU z-score, parental, hydroxyurea”: 3.6
TMX1 (thioredoxin related transmembrane protein 1) #1, EdU z-score, parental, hydroxyurea = 0.00648
